Results are given in words; binding and its absence hold for the method and conditions named. In cells and extracts the contact can be indirect. Binding calls can cover weak binding; strength is not graded here.
Biological target: PARP1–GFP stably expressed in HeLa cells (UniProt P09874)
Experiment: co-IP; PARP1–GFP captured on GFP-trap beads from the chromatin fraction of HeLa cells expressing TEX264 variants, after talazoparib and MMS for 3 h

By UniProt entry, the sequences of proteins in these tests, tags left out. Where a name states a change or a piece, a line headed by the entry shows the natural chain unless it says otherwise.
UniProt P09874: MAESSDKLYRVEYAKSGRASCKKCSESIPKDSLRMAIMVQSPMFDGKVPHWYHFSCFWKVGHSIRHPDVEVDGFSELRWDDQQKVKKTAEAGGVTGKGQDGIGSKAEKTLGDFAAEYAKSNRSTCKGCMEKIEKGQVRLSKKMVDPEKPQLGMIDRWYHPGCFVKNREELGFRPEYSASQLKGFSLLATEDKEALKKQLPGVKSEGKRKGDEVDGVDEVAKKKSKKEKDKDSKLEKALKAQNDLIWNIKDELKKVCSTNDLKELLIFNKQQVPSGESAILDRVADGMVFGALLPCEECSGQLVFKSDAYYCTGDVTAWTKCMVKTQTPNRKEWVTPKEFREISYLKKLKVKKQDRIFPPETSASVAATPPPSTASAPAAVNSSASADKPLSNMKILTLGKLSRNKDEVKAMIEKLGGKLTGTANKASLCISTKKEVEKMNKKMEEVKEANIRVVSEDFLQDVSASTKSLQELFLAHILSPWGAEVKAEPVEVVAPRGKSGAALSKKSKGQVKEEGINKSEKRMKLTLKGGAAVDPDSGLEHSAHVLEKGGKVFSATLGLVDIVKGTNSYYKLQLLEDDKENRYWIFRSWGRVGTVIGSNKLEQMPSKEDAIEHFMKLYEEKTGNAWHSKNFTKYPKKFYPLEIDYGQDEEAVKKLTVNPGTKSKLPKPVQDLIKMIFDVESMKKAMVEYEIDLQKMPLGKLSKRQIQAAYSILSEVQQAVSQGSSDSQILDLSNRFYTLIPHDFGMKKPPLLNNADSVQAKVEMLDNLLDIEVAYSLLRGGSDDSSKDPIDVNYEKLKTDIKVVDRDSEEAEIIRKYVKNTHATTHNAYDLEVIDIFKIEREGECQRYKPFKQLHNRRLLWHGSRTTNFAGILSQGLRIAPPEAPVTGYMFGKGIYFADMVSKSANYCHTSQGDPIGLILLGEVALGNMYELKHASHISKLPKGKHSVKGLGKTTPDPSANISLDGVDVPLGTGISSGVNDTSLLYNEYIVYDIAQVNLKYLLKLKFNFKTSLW
UniProt Q9Y6I9: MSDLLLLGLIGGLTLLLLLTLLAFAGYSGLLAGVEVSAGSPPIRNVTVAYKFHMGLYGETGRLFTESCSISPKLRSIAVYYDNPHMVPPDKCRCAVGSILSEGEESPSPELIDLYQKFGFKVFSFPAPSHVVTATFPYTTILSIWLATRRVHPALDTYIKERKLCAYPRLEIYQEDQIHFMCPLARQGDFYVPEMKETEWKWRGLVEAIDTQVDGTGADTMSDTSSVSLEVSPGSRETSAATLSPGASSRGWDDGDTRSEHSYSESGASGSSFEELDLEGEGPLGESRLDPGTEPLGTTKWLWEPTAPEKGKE

## TEX264–Δα-helix (TEX264 lacking the α-helix that follows the GyrI-like domain) (from UniProt Q9Y6I9)
  binding: binds

Reference: PMC13278974, “Nucleophagy removes cytotoxic trapped PARP1” (Nature Cell Biology, 2026)
